Assay results as given in US6133233A, “Peptide modulation of reperfusion injury” (Kansas State University Research Foundation, priority 1998, dated 2000).
Not every detail of the peptide structures is certain; ends, links or a residue may be inferred. Where a SMILES comes first, the peptide text is derived from it.

System: bovine pulmonary artery endothelial (BPAE) cells
Assay: Superoxide production in high K+ treated BPAE cells (dichlorodihydrofluorescein)
Type: cell-based
Details: 10 μM, 30 min
Experimental: PR-39 (SEQ ID No. 1) was also tested in a cell other than neutrophils, namely bovine pulmonary artery endothelial (BPAE) cells. In these cells, membrane depolarization induced by high K^+ treatment results in the production of superoxide anion by an endothelial NADPH oxidase enzyme that may be similar to the oxidase found in neutrophils. In these experiments, cultured BPAE cells were loaded with an oxidation-sensitive dye, dichlorodihydrofluorescein, then treated with high K^+, plus or minus PR-39 (SEQ ID No. 1) or PR-26 (SEQ ID No. 2), for 30 min. Cells were then scraped, pelleted, washed, and sonicated. Fluorescence of the supernatant was then measured to assess superoxide production.

Structure (SMILES): CC[C@H](C)[C@H](NC(=O)[C@H](CCCNC(=N)N)NC(=O)[C@@H]1CCCN1C(=O)[C@@H]1CCCN1C(=O)[C@H](CC(C)C)NC(=O)[C@H](CCCNC(=N)N)NC(=O)[C@@H]1CCCN1C(=O)[C@@H]1CCCN1C(=O)[C@H](Cc1ccccc1)NC(=O)[C@H](Cc1ccccc1)NC(=O)[C@@H]1CCCN1C(=O)[C@@H]1CCCN1C(=O)[C@@H]1CCCN1C(=O)[C@H](CCCNC(=N)N)NC(=O)[C@@H]1CCCN1C(=O)[C@H](CCCNC(=N)N)NC(=O)[C@@H]1CCCN1C(=O)[C@H](CC(C)C)NC(=O)[C@H](Cc1ccc(O)cc1)NC(=O)[C@@H]1CCCN1C(=O)[C@@H]1CCCN1C(=O)[C@H](CCCNC(=N)N)NC(=O)[C@@H]1CCCN1C(=O)[C@H](CCCNC(=N)N)NC(=O)[C@H](CCCNC(=N)N)NC(=O)[C@@H](N)CCCNC(=N)N)C(=O)O [PR-26] (H-RRRPRPPYLPRPRPPPFFPPRLPPRI-OH)
- Oxidase activity (superoxide production) in pulmonary endothelium: decrease oxidase activity
